{"source": "PubChem BioAssay AID686937 (Drosophila RNAi Screening Center, 2013)", "screen": "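Genes whose loss weakens secretory pathway function in fly cells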 (primary screen)", "cell system": "Drosophila S2 cells expressing secreted horseradish peroxidase", "reagent": "long dsRNA against Drosophila genes", "time to read-out": "about 5.5 days (5 days dsRNA, then 12 h reporter induction)", "challenge": "reporter expression induced after 5 days of dsRNA, read 12 h later; inducer not stated", "measured": "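After 5 days of dsRNA and 12 h of reporter induction, medium peroxidase read by chemiluminescence and scored as per-plate z-score; higher values mean more reporter released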", "direction": "z-score: higher = more reporter secreted into medium", "note": "In all, the deposit lists about 23,000 reagents; below is an unselected part of those with a known target gene and a result. 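Reduced-secretion tags in replicate 1 do not always agree with the z-scores; no criterion for assigning the tags was given.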 Names joined by + are all predicted targets of the reagent. Not all columns of the deposit are shown. Not given: the amount of reagent."}
{"gene knocked down": "CG34178 + CG34177", "dsRNA": "DRSC00351", "z-score, replicate 1": 0.39}
{"gene knocked down": "SCOT", "dsRNA": "DRSC08186", "z-score, replicate 1": 0.28}
{"gene knocked down": "Buffy", "dsRNA": "DRSC05957", "z-score, replicate 1": 0.37}
{"gene knocked down": "Pfdn2", "dsRNA": "DRSC10618", "z-score, replicate 1": 0.19}
{"gene knocked down": "acs", "dsRNA": "DRSC08185", "z-score, replicate 1": 0.32}
{"gene knocked down": "RhoGEF3", "dsRNA": "DRSC08266", "z-score, replicate 1": 0.6}
{"gene knocked down": "RhoGEF3", "dsRNA": "DRSC08351", "z-score, replicate 1": 0.31}
{"gene knocked down": "RhoGEF3", "dsRNA": "DRSC08352", "z-score, replicate 1": 0.28}
{"gene knocked down": "RhoGEF3", "dsRNA": "DRSC08353", "z-score, replicate 1": -0.02}
{"gene knocked down": "CG1910", "dsRNA": "DRSC15400", "z-score, replicate 1": 0.18}
{"gene knocked down": "CG4707", "dsRNA": "DRSC04483", "z-score, replicate 1": 0.11}
{"gene knocked down": "CG6565", "dsRNA": "DRSC02970", "z-score, replicate 1": 0.13}
{"gene knocked down": "mus101", "dsRNA": "DRSC19388", "z-score, replicate 1": 0.21}
{"gene knocked down": "FarO", "dsRNA": "DRSC18475", "z-score, replicate 1": 0.3}
{"gene knocked down": "hpRNA:CR18854", "dsRNA": "DRSC02702", "z-score, replicate 1": 0.36}
{"gene knocked down": "osi", "dsRNA": "DRSC02931", "z-score, replicate 1": 0.41}
{"gene knocked down": "CG32473", "dsRNA": "DRSC14352", "z-score, replicate 1": 0.37}
{"gene knocked down": "CG32473", "dsRNA": "DRSC16446", "z-score, replicate 1": 0.37}
{"gene knocked down": "CG32191", "dsRNA": "DRSC10522", "z-score, replicate 1": 0.1}
{"gene knocked down": "ppan", "dsRNA": "DRSC17030", "z-score, replicate 1": -0.18}
{"gene knocked down": "Nckx30C", "dsRNA": "DRSC02686", "z-score, replicate 1": 0.14}
{"gene knocked down": "Nckx30C", "dsRNA": "DRSC02687", "z-score, replicate 1": 0.18}
{"gene knocked down": "Nckx30C", "dsRNA": "DRSC02688", "z-score, replicate 1": 0.67}
{"gene knocked down": "Nckx30C", "dsRNA": "DRSC02689", "z-score, replicate 1": 0.44}
{"gene knocked down": "CG34408", "dsRNA": "DRSC17733", "z-score, replicate 1": 0.51}
{"gene knocked down": "CG34408", "dsRNA": "DRSC21926", "z-score, replicate 1": -1.23, "phenotype, replicate 1": "reduced secretion"}
{"gene knocked down": "atl", "dsRNA": "DRSC16089", "z-score, replicate 1": 0.15}
{"gene knocked down": "sdt", "dsRNA": "DRSC17555", "z-score, replicate 1": -0.3}
{"gene knocked down": "sdt", "dsRNA": "DRSC17556", "z-score, replicate 1": 0.26}
{"gene knocked down": "sdt", "dsRNA": "DRSC17860", "z-score, replicate 1": 0.08}
{"gene knocked down": "sdt", "dsRNA": "DRSC17861", "z-score, replicate 1": 0.22}
{"gene knocked down": "sdt", "dsRNA": "DRSC18022", "z-score, replicate 1": 0.28}
{"gene knocked down": "sdt", "dsRNA": "DRSC18025", "z-score, replicate 1": -1.05}
{"gene knocked down": "sdt", "dsRNA": "DRSC18026", "z-score, replicate 1": -1.49}
{"gene knocked down": "sdt", "dsRNA": "DRSC18027", "z-score, replicate 1": 0.39}
{"gene knocked down": "sdt", "dsRNA": "DRSC18108", "z-score, replicate 1": 0.44}
{"gene knocked down": "dos", "dsRNA": "DRSC07992", "z-score, replicate 1": -2.74, "phenotype, replicate 1": "reduced secretion"}
{"gene knocked down": "dos", "dsRNA": "DRSC08713", "z-score, replicate 1": -0.21}
{"gene knocked down": "bip1", "dsRNA": "DRSC11327", "z-score, replicate 1": 0.48}
{"gene knocked down": "Hao + Pex6", "dsRNA": "DRSC06097", "z-score, replicate 1": 0.43}
{"gene knocked down": "Hao + Pex6", "dsRNA": "DRSC06704", "z-score, replicate 1": -0.02}

Reformatted: entries from further up
RhoGEF3 [DRSC08352] → z-score, replicate 1: 0.28
RhoGEF3 [DRSC08353] → z-score, replicate 1: -0.02
CG1910 [DRSC15400] → z-score, replicate 1: 0.18
CG4707 [DRSC04483] → z-score, replicate 1: 0.11
